Results are given in words; binding and its absence hold for the method and conditions named. Some results given as binding are weak or reduced against the parent protein; the word gives no strength. No end group written: not given here.
Assays:
[1] = biological target: T1, TAMRA-labeled SRC-1 NR2 peptide (686-RHKILHRLLQEGS-698) (also: TAMRA label, position not given here); assay: fluorescence polarisation; fluorescence anisotropy; hRARα/mRXRα LBDs added to a fixed concentration of TAMRA-SRC-1 NR2 peptide; 20°C; 10 mM TRIS-HCl pH 7.5, 150 mM NaCl, 10 mM DTT; heterodimer bound to HX531; both purified
T1 construct: also called (TAMRA) – SRC-1 NR2 peptide; source: bought: Neosystem (Strasbourg, France)
T1 peptide: RHKILHRLLQEGS

[2] = biological target: hRARα/mRXRα LBD heterodimer (human | mouse) (UniProt P10276+P28700); assay: SAXS; RARα-atRA/RXRα-LG100754 LBDs in solution, at least three protein concentrations from 2 to 5 mg/ml; Rg and Dmax compared with dimeric and tetrameric models; both purified

binding [1]: binds
binding [2]: no binding (tested: 2 to 5 mg/ml)
B1: hRARα/mRXRα LBD heterodimer (complex, human | mouse)
chain 1: MSKESVRNDRNKKKKEVPKPECSESYTLTPEVGELIEKVRKAHQETFPALCQLGKYTTNNSSEQRVSLDIDLWDKFSELSTKCIIKTVEFAKQLPGFTTLTIADQITLLKAACLDILILRICTRYTPEQDTMTFSDGLTLNRTQMHNAGFGPLTDLVFAFANQLLPLEMDDAETGLLSAICLICGDRQDLEQPDRVDMLQEPLLEALKVYVRKRRPSRPHMFPKMLMKITDLRSISAKGAERVITLKMEIPGSMPPLIQEMLENSEGLD
chain 2: TSSANEDMPVEKILEAELAVEPKTETYVEANMGLNPSSPNDPVTNICQAADKQLFTLVEWAKRIPHFSELPLDDQVILLRAGWNELLIASFSHRSIAVKDGILLATGLHVHRNSAHSAGVGAIFDRVLTELVSKMRDMQMDKTELGCLRAIVLFNPDSKGLSNPAEVEALREKVYASLEAYCKHKYPEQPGRFAKLLLRLPALRSIGLKCLEHLFFFKLIGDTPIDTFLMEMLEAPHQAT
notes: Heterodimer formed beforehand; small-molecule ligands (atRA, LG100754, AM580, BMS614, BMS649, 9-cisRA, HX531) differ between experiments and are named in the assays; also called RARα/RXRα LBD; RAR/RXR; not shown: His6, N-terminal, kept; copies: 1 + 1

From article PMC2994906 (PLoS ONE, 2010)
